The source of these data is the supplement of paper PMC9135407.

Several values for one entry are separate records, joined by “and”; a condition that tells them apart may be missing. Identical values can stand only once. Counter-ions that a name gives are not always drawn. ± gives the standard deviation of the averaged measurements. The list shows a part of the results. Plates or batches differ in their baseline, so values are only roughly comparable.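 Primary human stellate myofibroblasts activated in culture; inactivation shown by regained lipid droplets. Readout: fraction of Hoechst-counted cells exceeding a per-plate Bodipy threshold, duplicate wells, each plate with DMSO negative and nortriptyline positive controls. Hits: control-normalized score beyond the plate's top-tenth-percentile nortriptyline wells, or among its three best wells. Final well concentrations unstated.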

This experiment has as its system primary human hepatic stellate cells (donor 1). Briefly: percent Bodipy-positive cells; higher = more lipid droplet accumulation. Conditions: 48 h. The method, then:
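Primary lipid accumulation screen in primary human hepatic stellate cell myofibroblasts (donor 1, passage 8) in 384-well plates. 100 nL of library compound was pin-transferred into 30 µL medium in duplicate, and cells were treated for 48 h. The 'Scaled' score combines distance from plate baseline, toxicity and reproducibility penalties, and is normalised to nortriptyline (positive) and DMSO (negative) controls on each plate. A hit is defined as scaled >0.85 or among the top 3 wells per plate.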

[1] abbreviates: library stock concentration: 10 mM.
Where [2] appears, read: library stock concentration: 3.33 mM.
Where [3] appears, read: library stock concentration: 1 mM.

`C=C(C)[C@H]1O[C@H]2CC[C@@]3(C)[C@@](O)(CC[C@H]4[C@@H]5OC(C)(C)[C@H]6C[C@@H]7C(=C)Cc8c(Cl)cc9[nH]c(c5c9c8[C@@]76O)[C@@]43C)[C@@]23O[C@H]3[C@H]1O` [Penitrem A]: the “percent Bodipy-positive cells” value (library stock concentration: 7.9 mM) came out at 27.9 ± 19%. `C[N+]1(C)CCN(c2ccccc2)CC1`: the “percent Bodipy-positive cells” value under setting [1] amounted to 11.4 ± 1.4%. The same measure, in the same setting: the value for `C[N+]1(C)CCN(c2ccccc2)CC1` [1,1-Dimethyl-4-phenyl-piperazinium iodide] was 40.45 ± 0.38%; that for `C[C@H](Cc1ccc2c(c1)OC(C(=O)O)(C(=O)O)O2)NC[C@H](O)c1cccc(Cl)c1` was 39.6 ± 10%. As to `CCC1(c2ccc(N)cc2)CCC(=O)NC1=O` (stereo unspecified) [Glutethimide, para-amino], the “percent Bodipy-positive cells” value was determined as 21.3 ± 5%. For `CCC1(c2ccc(N)cc2)CCC(=O)NC1=O` (stereo unspecified) [(?)-p-Aminoglutethimide], the “percent Bodipy-positive cells” value under setting [1] came out at 50.4 ± 2.8%.

Consider `CCC1(c2ccc(N)cc2)CCC(=O)NC1=O` (stereo unspecified) [Aminoglutethimide], for which the “percent Bodipy-positive cells” value under setting [2] is 8.02 ± 1.7%; the “percent Bodipy-positive cells” value (library stock concentration: 8.6 mM) came to 2.95 ± 0.4%; the “percent Bodipy-positive cells” value under setting [1] was 10.9% and 17.6% and 26.3%.

Turning to `O=c1[nH]c2ccccc2n1C1CCN(CCCC(c2ccc(F)cc2)c2ccc(F)cc2)CC1` [Pimozide], the “percent Bodipy-positive cells” value under setting [1] is 74.9 ± 5.3%.

Consider `CCCN1CCC[C@H](c2cccc(O)c2)C1` [R(+)-3PPP hydrochloride], for which, under setting [1], the “percent Bodipy-positive cells” value was found to be 18.6 ± 1.1%. With `NC(=O)COc1c(F)cc(SCCNS(=O)(=O)c2ccccc2)cc1F`, the “percent Bodipy-positive cells” value under setting [1] was determined as 33.8 ± 6.4%. Regarding `CC[C@@]1([C@@H]2O[C@@H]([C@H]3O[C@@](O)(CO)[C@H](C)C[C@@H]3C)C[C@@H]2C)CC[C@H]([C@]2(C)CC[C@]3(C[C@H](O)[C@@H](C)[C@@H]([C@@H](C)[C@@H](OC)[C@H](C)C(=O)O)O3)O2)O1` [Monensin sodium salt], the “percent Bodipy-positive cells” value turned out to be 46.8 ± 9.2%.

`CCN(C)C(=O)Oc1cccc([C@H](C)N(C)C)c1` [Rivastigmine]: the “percent Bodipy-positive cells” value (library stock concentration: 8 mM) was found to be 9.34 ± 1.2%. `CCN(C)C(=O)Oc1cccc([C@H](C)N(C)C)c1` [Rivastigmine Tartrate]: the “percent Bodipy-positive cells” value amounted to 8.01 ± 2.2% under setting [2] and 22.2 ± 5.7% under setting [1]. Consider `O=C1NC(=O)c2c1c1c3ccccc3n3c1c1c2c2ccccc2n1C1CCC3O1`, for which, under setting [1], the “percent Bodipy-positive cells” value was 80.4 ± 1.2%. Turning to `NCCc1ccc(O)cc1` [Tyramine], under setting [1], the “percent Bodipy-positive cells” value was 26.6 ± 7.5%. With `NCCc1ccc(O)cc1` [4-Hydroxyphenethylamine hydrochloride], the “percent Bodipy-positive cells” value under setting [1] is 15.3 ± 2.1%.

Take `CN(C(=O)Cc1ccc(Cl)c(Cl)c1)C(CN1CCCC1)c1cccc(OCC(=O)O)c1` (stereo unspecified) [ICI 204,448 hydrochloride]: the “percent Bodipy-positive cells” value under setting [1] stood at 46.2 ± 5.1%. In the case of `CN(C)C(=O)Oc1cc(OC(=O)N(C)C)cc(C(O)CNC(C)(C)C)c1` (stereo unspecified) [Bambuterol hydrochloride], the “percent Bodipy-positive cells” value turned out to be 33.1 ± 3.1%. With `CN(C)C(=O)Oc1cc(OC(=O)N(C)C)cc(C(O)CNC(C)(C)C)c1` (stereo unspecified) [Bambuterol HCl], the “percent Bodipy-positive cells” value reads like this: under setting [2], 6.16 ± 1.5%; under setting [1], 26.6 ± 2.5%.

`CN(C)C(=O)Oc1cc(OC(=O)N(C)C)cc(C(O)CNC(C)(C)C)c1` (stereo unspecified) [Bambuterol]: where the note is “library stock concentration: 5.4 mM”, the “percent Bodipy-positive cells” value was found to be 13.3 ± 0.18%.

As to `CCCCC/C=C\C/C=C\C/C=C\C/C=C\CCCCOC(CO)CO` [2-Arachidonyl Glycerol ether], the “percent Bodipy-positive cells” value under setting [3] was 11.8 ± 3.3%. For the compound `C[N+]1(C)[C@@H]2C[C@@H](OC(=O)[C@H](CO)c3ccccc3)C[C@H]1[C@@H]1O[C@@H]12` [Methscopolamine bromide], the “percent Bodipy-positive cells” value stood at 4.39 ± 0.54% (library stock concentration: 5 mM) and 11.2 ± 0.25% under setting [1]. As to `C[N+]1(C)[C@@H]2C[C@@H](OC(=O)[C@H](CO)c3ccccc3)C[C@H]1[C@@H]1O[C@@H]12` [(-)-Scopolamine methyl bromide], the “percent Bodipy-positive cells” value under setting [1] worked out at 12 ± 5.2%.

Turning to `C[N+]1(C)[C@@H]2C[C@@H](OC(=O)[C@H](CO)c3ccccc3)C[C@H]1[C@@H]1O[C@@H]12` [Methscopolamine], the “percent Bodipy-positive cells” value turned out to be 8.15 ± 2.1% under setting [2] and 17.2 ± 0.44% under setting [1]. As to `C[C@]12CC[C@H](O)C[C@@H]1CC[C@@H]1[C@@H]2CC[C@]2(C)C(=O)CC[C@@H]12` [Epiandrosterone], the “percent Bodipy-positive cells” value was 39.2 ± 9.8%. For the same compound, the “percent Bodipy-positive cells” value under setting [2] is 12.4 ± 1.4%. Moreover, the “percent Bodipy-positive cells” value under setting [1] amounted to 49.1 ± 34%. With `Cn1cc(C(=O)C(=O)N[C@H]2CN3CCC2CC3)c2ccccc21`, the “percent Bodipy-positive cells” value under setting [1] was 32.4 ± 4.1%.

With `N[C@@]1(C(=O)O)CC[C@@H](C(=O)O)C1`, under setting [1], the “percent Bodipy-positive cells” value came out at 9.47 ± 4.8%. As for `CCn1cc(C(=O)O)c(=O)c2cc3c(cc21)OCO3` [Oxolinic acid], the “percent Bodipy-positive cells” value is 27.9 ± 1.5%. The “percent Bodipy-positive cells” value (library stock concentration: 7.7 mM) turned out to be 9.07 ± 1.7%. For the same compound, the “percent Bodipy-positive cells” value under setting [1] was 30.1% and 42%. `CC1=NCCc2c1[nH]c1cc(O)ccc21.Cl.O.O` [Harmalol hydrochloride dihydrate]: the “percent Bodipy-positive cells” value turned out to be 88.6 ± 1.5%. `Cc1nc(N)sc1CCN` [Amthamine dihydrobromide]: under setting [1], the “percent Bodipy-positive cells” value was determined as 7.11 ± 2.6%. Take `[N-]=[N+]=CC(=O)OC[C@H](N)C(=O)O` [Azaserine]: the “percent Bodipy-positive cells” value was determined as 40.6 ± 4.6% under setting [1] and 18.5 ± 5.1% (library stock concentration: 11.6 mM).

For `CCCCC/C=C\C[C@@H](/C=C/C=C\C/C=C\CCCC(=O)O)OO`, the “percent Bodipy-positive cells” value (library stock concentration: 100 uM) was found to be 9.51 ± 8.6%.

For the compound `CC(=O)O[C@H]1C[C@@H]2CC[C@@H]3[C@H](CCC4(C)[C@H]3C[C@H]([N+]3(C)CCCCC3)[C@@H]4OC(C)=O)C2(C)C[C@@H]1[N+]1(C)CCCCC1` (stereo partly specified) [Pancuronium Br], for the setting “library stock concentration: 3.5 mM”, the “percent Bodipy-positive cells” value is 10.3 ± 3.7%.

With `CCCCCc1cc(O)c2c(c1)OC(C)(C)C1CCC(C(=O)O)=CC21` (stereo unspecified) [Tetrahydrocannabinol-7-oic acid], the “percent Bodipy-positive cells” value under setting [3] worked out at 11 ± 8.7%. On the same count and under the same terms, the value for `CCCCCCCCCC(=O)OC[C@H](COP(=O)([O-])OCC[N+](C)(C)C)OC(=O)CCCCCCCCC` [1,2-Didecanoyl PC] was 12.7 ± 6%.
